Results deposited as PubChem BioAssay AID686937 (Drosophila RNAi Screening Center, 2013)

Test: 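Knock-downs that reduce output of a secreted reporter enzyme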 (primary screen)
Cells: Drosophila S2 cells expressing secreted horseradish peroxidase
Reagent: long dsRNA against Drosophila genes
Timing: about 5.5 days (5 days dsRNA, then 12 h reporter induction)
Challenge: reporter expression induced after 5 days of dsRNA, read 12 h later; inducer not stated
Measurement: 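Chemiluminescent measurement of peroxidase in the medium 12 h after reporter induction, following 5 days of dsRNA, given as a z-score per plate; higher means more secretion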
Scale: z-score: higher = more reporter secreted into medium
The deposit covers about 23,000 reagents; shown is a random part of those that have a named target and a result. 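Reduced-secretion tags in replicate 1 do not always agree with the z-scores; no criterion for assigning the tags was given.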 Reagents against one gene are numbered here. Not all columns of the deposit are shown. No sequences are given here. The record does not give: the amount of reagent.

What is on record for Jarid2 (GeneID 39103)?
z-score, replicate 1: 0.39

For gwl (GeneID 45969), what does the deposit list?
z-score, replicate 1: 0.39

With Kank (GeneID 36668) #1, what does the deposit list?
z-score, replicate 1: 0.05

What is on record for Kank (GeneID 36668) #2?
z-score, replicate 1: 0.1

Which result is listed for Rx (GeneID 37367) #1?
z-score, replicate 1: 0.32

For Rx (GeneID 37367) #2, how do the results read?
z-score, replicate 1: 0.8

For ERR (GeneID 38912), what was measured?
z-score, replicate 1: 0.01

How did the screen score CG3631 (GeneID 41797)?
z-score, replicate 1: 0.41

How did the screen score Urm1 (GeneID 2768949)?
z-score, replicate 1: -0.44

What did the screen give for CG5500 (GeneID 43233)?
z-score, replicate 1: 0.07

How did the screen score CycT (GeneID 39961)?
z-score, replicate 1: -5.92

What did the screen give for Rsph3 (GeneID 38751) #1?
z-score, replicate 1: 0.6

For Rsph3 (GeneID 38751) #2, what does the deposit list?
z-score, replicate 1: 0.32

What did the screen give for mTor (GeneID 47396)?
z-score, replicate 1: -1.28

With sbb (GeneID 44027) #1, what does the deposit list?
z-score, replicate 1: 0.25

For sbb (GeneID 44027) #2, how do the results read?
z-score, replicate 1: 0.44

2 entries already listed, arranged by “z-score, replicate 1”, ascending:
mTor (GeneID 47396): z-score, replicate 1 = -1.28
Rsph3 (GeneID 38751) #2: z-score, replicate 1 = 0.32
